Reference: publication PMC5996148
The other results are listed elsewhere or left out.

What was measured:
Assay in all cases: protein microarray (ProtoArray v5.0), streptavidin-Alexa Fluor 647
Conditions in all cases: 3'-biotin; 20 mM Tris (pH 7.5), 5 mM MgCl2, 100 mM KCl, 0.1% Tween-20, A/T-rich and random oligonucleotide blockers; temperature not stated; high values mean tight binding
Cytoglobin (human) = system: Cytoglobin (human)
[1] = system: Cytoplasmic dynein 1 heavy chain 1 (human)
[2] = system: Cytosol aminopeptidase (human)
[3] = system: Cytosolic non-specific dipeptidase (human)
[4] = system: Cytosolic phospholipase A2 gamma (human)
D-aspartate (human) = system: D-aspartate (human)
DAO (human) = system: DAO (human)
DAP3 (human) = system: DAP3 (human)
[5] = system: DAZ-associated protein 2 (human)
DBI (human) = system: DBI (human)

Sequence: GGGAGGCTGAGGCAGG [G4-1 biotinylated (PQS2)]
- binding signal (Cytoglobin (human)): -0.335 z-score
- binding signal [1]: -0.349 z-score
- binding signal [2]: -0.311 z-score
- binding signal [3]: -0.353 z-score
- binding signal [4]: -0.308 z-score
- binding signal (D-aspartate (human)): -0.254 z-score
- binding signal (DAO (human)): -0.316 z-score
- binding signal (DAP3 (human)): -0.298 z-score
- binding signal [5]: -0.339 z-score
- binding signal (DBI (human)): -0.325 z-score
